The list does not hold the whole screen: it gathers tests that were run many times, whatever their T/C, doses with no T/C, and many T/C values between a quarter and a half above the control. Other doses and runs of a compound stand elsewhere. T/C is the treated group as % of the vehicle group. Some entries give survivors of the animals treated and no T/C: the source files T/C as zero there, which appears to mark a toxic dose or a test without result, not a measured value. Some doses without a T/C left all or most animals alive at the check, yet need not have been tolerated: the source hardly ever lists a survival T/C far under the control, and the zero likely stands for such cases as well. Counts of survivors are from the toxicity check (mostly the fifth day) where no day follows; animals may have died later. Schedule codes are those of the source, taken here to give the interval after Q, in days (D) or hours (H), and the number of doses after X. Some entries hold several experiments; the values are given in rising order. Where survival is the endpoint, this PubChem deposit counts one and a half times the control or more as active, and values a quarter to a half above the control carry no call in these data; other NCI protocols may use other cut-offs. Some T/C values carry the count of animals alive at the toxicity check (mostly the fifth day); without a count, all were alive then.

These results are taken from PubChem BioAssay AID330 (DTP/NCI, 2004).

The test system of the assay is P388 leukemia ip, CD2F1 mice, survival T/C. Description: NCI In Vivo Anticancer Drug Screen. Data for tumor model P388 Leukemia (intraperitoneal) in CD2F1 (CDF1) mice. Particulars: T/C endpoint: median survival time, higher T/C = longer survival.
Setting [1] is: dose: 50.0 mg/kg/injection, schedule: Q01DX009 (ip), vehicle: saline with Tween-80.
[2] abbreviates: dose: 100.0 mg/kg/injection, schedule: Q01DX009 (ip), vehicle: saline with Tween-80.
[3] abbreviates: dose: 400.0 mg/kg/injection, schedule: Q01DX009 (ip), vehicle: saline with Tween-80.
[4] abbreviates: dose: 200.0 mg/kg/injection, schedule: Q01DX005 (ip), vehicle: Klucel (hydroxypropylcellulose) (HPC).
[5] abbreviates: dose: 50.0 mg/kg/injection, schedule: Q01DX005 (ip), vehicle: Klucel (hydroxypropylcellulose) (HPC).
Where [6] appears, read: dose: 100.0 mg/kg/injection, schedule: Q01DX005 (ip), vehicle: Klucel (hydroxypropylcellulose) (HPC).

As to `CCSc1ncc(Br)c(Sc2nc(N)nc3nc[nH]c23)n1`, the T/C is, setting by setting: (dose: 8.0 mg/kg/injection, schedule: Q04DX003 (ip), vehicle: saline with Tween-80) 127 % of control; (dose: 12.5 mg/kg/injection, schedule: Q01DX009 (ip), vehicle: saline with Tween-80) 127 % of control; (dose: 16.0 mg/kg/injection, schedule: Q04DX003 (ip), vehicle: saline with Tween-80) 145 % of control; (dose: 25.0 mg/kg/injection, schedule: Q01DX009 (ip), vehicle: saline with Tween-80) 140 % of control; (dose: 37.5 mg/kg/injection, schedule: Q04DX003 (ip), vehicle: saline with Tween-80) 140 % of control; (dose: 50.0 mg/kg/injection, schedule: Q04DX003 (ip), vehicle: saline with Tween-80) 145 % of control. The survivor count was 6 of 6 under setting [1] and 6 of 6 under setting [2].
Regarding `CCCCCc1ccccc1`, under setting [3], the survivor count is recorded as 3 of 6.
As to `Cn1c([N+](=O)[O-])cnc1CSC(=S)N1CCN(C(=S)SCc2ncc([N+](=O)[O-])n2C)CC1`, the survivor count under setting [3] was 0 of 6 and 4 of 5.
As for `CCc1ccc(C(=O)N/N=C(\C)[C@]2(O)Cc3c(O)c4c(c(O)c3[C@@H](OC3CC(N)C(O)C(C)O3)C2)C(=O)c2c(OC)cccc2C4=O)cc1` (stereo not given in full), the T/C runs as follows: (dose: 0.25 mg/kg/injection, schedule: Q01DX009 (ip), vehicle: water, evaluated on day 30) 139 % of control; (dose: 0.25 mg/kg/injection, schedule: Q01DX009 (ip), vehicle: water, evaluated on day 45) 133 % of control; (dose: 0.5 mg/kg/injection, schedule: Q01DX009 (ip), vehicle: water, evaluated on day 30) 148 % of control; (dose: 0.5 mg/kg/injection, schedule: Q01DX009 (ip), vehicle: water, evaluated on day 45) 137 % of control. In addition, the survivor count (dose: 16.0 mg/kg/injection, schedule: Q01DX009 (ip), vehicle: water) is 5 of 6 and 6 of 6.
For the compound `Cn1cnc2c(F)ncnc21`, the survivor count under setting [4] is given as 0 of 6.
As to `Cc1ccc(C)n1-c1ccsc1C(=O)NNC(=O)C(Cl)(Cl)Cl`, the survivor count (dose: 60.0 mg/kg/injection, schedule: Q01DX005 (ip), vehicle: Klucel (hydroxypropylcellulose) (HPC)) was 0 of 6; the survivor count (dose: 120.0 mg/kg/injection, schedule: Q01DX005 (ip), vehicle: Klucel (hydroxypropylcellulose) (HPC)) is listed as 0 of 6; the survivor count (dose: 240.0 mg/kg/injection, schedule: Q01DX005 (ip), vehicle: Klucel (hydroxypropylcellulose) (HPC)) is 0 of 6.
Take `CC(C)N1COCO[C@H]2CCC[C@@H]21`: under setting [5], the T/C was 129 % of control. Further, the survivor count (dose: 400.0 mg/kg/injection, schedule: Q01DX001 (ip), vehicle: Klucel (hydroxypropylcellulose) (HPC)) is reported as 0 of 6.
`CC(=O)OCC(=O)[C@@]12OC(C)(C)O[C@@H]1C[C@H]1[C@@H]3CC(C=O)=C4C=C(OCCCl)CC[C@]4(C)[C@@]3(F)[C@@H](O)C[C@@]12C`: the T/C (dose: 3.13 mg/kg/injection, schedule: Q01DX009 (ip), vehicle: Klucel (hydroxypropylcellulose) (HPC)) is 135 % of control and the T/C (dose: 6.25 mg/kg/injection, schedule: Q01DX009 (ip), vehicle: Klucel (hydroxypropylcellulose) (HPC)) is 135 % of control.
Turning to `O=S(=O)(c1cccc(N=C=S)c1)c1cccc(N=C=S)c1`, the T/C was 132 % of control [5 of 6 alive] (dose: 25.0 mg/kg/injection, schedule: Q01DX005 (ip), vehicle: Klucel (hydroxypropylcellulose) (HPC)) and 131 % of control under setting [5]. Moreover, the survivor count is on record as 0 of 6 under setting [5], 0 of 6 under setting [6] and 0 of 6 under setting [4].
For the compound `COc1cc2cc[n+](C)c(C)c2cc1OC`, the survivor count was 0 of 6 and 1 of 6 (dose: 200.0 mg/kg/injection, schedule: Q01DX009 (ip), vehicle: distilled water + Tween-80); 0 of 6 (dose: 400.0 mg/kg/injection, schedule: Q01DX009 (ip), vehicle: distilled water + Tween-80).
Take `O=c1c(=NO)c(=O)c2ccccc12`: under “dose: 400.0 mg/kg/injection, schedule: Q01DX001 (ip), vehicle: saline with Tween-80”, the survivor count is given as 1 of 6.
Take `CCN(CC)CCCC(C)Nc1ccnc2cc(N(C)C)ccc12` (stereo not given): the survivor count is 6 of 6 under setting [1]; 0 of 6 under setting [2]; 0 of 6 (dose: 200.0 mg/kg/injection, schedule: Q01DX009 (ip), vehicle: saline with Tween-80).
Consider `COC(=O)C1CC(=O)N(C)c2sc(C)c(C)c2C1=O` (stereo not given), for which the survivor count (dose: 400.0 mg/kg/injection, schedule: Q04DX003 (ip), vehicle: saline with Tween-80) was 5 of 6.
Take `O=C1CCOCCCOCCC(=O)OCCCOC(=O)CCOCCCOCCC(=O)OCCCO1`: the survivor count under setting [4] is on record as 3 of 6.
As for `O=c1[nH]cnc2c1cnn2CN1CCOCC1`, the T/C under setting [6] was 130 % of control. In addition, under setting [4], the T/C is 130 % of control and the survivor count was 6 of 6.
In the case of `c1csc(SSc2nccs2)n1`, the survivor count (dose: 200.0 mg/kg/injection, schedule: Q04DX002 (ip), vehicle: saline with Tween-80) is recorded as 3 of 6 and the survivor count (dose: 400.0 mg/kg/injection, schedule: Q04DX002 (ip), vehicle: saline with Tween-80) is recorded as 0 of 6.
For `C=C(C)C#CCN(CCO)C(C)C`, where the note is “dose: 240.0 mg/kg/injection, schedule: Q01DX005 (ip), vehicle: saline with Tween-80”, the survivor count was 0 of 6.
On to `C#CCNCCCn1c(=O)nc2n(-c3ccccc3)c3ccccc3nc-2c1=O`, for which the survivor count is, setting by setting: (dose: 200.0 mg/kg/injection, schedule: Q04DX003 (ip), vehicle: Klucel (hydroxypropylcellulose) (HPC)) 6 of 6; (dose: 400.0 mg/kg/injection, schedule: Q04DX003 (ip), vehicle: Klucel (hydroxypropylcellulose) (HPC)) 0 of 6.
Consider `CCN(CC)C1=Nc2ccccc2N(c2ccccc2)C(N2CCCCC2)=C1`, for which the survivor count reads like this: (dose: 100.0 mg/kg/injection, schedule: Q04DX002 (ip), vehicle: Klucel (hydroxypropylcellulose) (HPC)) 0 of 6; (dose: 200.0 mg/kg/injection, schedule: Q04DX002 (ip), vehicle: Klucel (hydroxypropylcellulose) (HPC)) 1 of 6; (dose: 400.0 mg/kg/injection, schedule: Q04DX002 (ip), vehicle: Klucel (hydroxypropylcellulose) (HPC)) 0 of 6.
Consider `Cn1cccc1/C=N/N1CC(=O)N(c2cccc(C(F)(F)F)c2)CC1=O`, for which the survivor count by setting is: (dose: 25.0 mg/kg/injection, schedule: Q01DX005 (ip), vehicle: saline with Tween-80) 0 of 6; (dose: 50.0 mg/kg/injection, schedule: Q01DX005 (ip), vehicle: saline with Tween-80) 0 of 6; (dose: 100.0 mg/kg/injection, schedule: Q01DX005 (ip), vehicle: saline with Tween-80) 0 of 6; (dose: 200.0 mg/kg/injection, schedule: Q01DX005 (ip), vehicle: saline with Tween-80) 0 of 6.
Regarding `Clc1cc(Cl)c2n[se]nc2n1`, the survivor count (dose: 200.0 mg/kg/injection, schedule: Q04DX002 (ip), vehicle: saline) is 1 of 6 and the survivor count (dose: 400.0 mg/kg/injection, schedule: Q04DX002 (ip), vehicle: saline) was 0 of 6.
Turning to `Cc1nc(Nc2ccccc2)c2c(C)c[nH]c2n1`, under setting [4], the survivor count is on record as 0 of 6.
`CCc1ccccc1N1CCN(C(=O)c2cc(OC)c(OC)c(OC)c2)CC1`: the T/C reads like this: (dose: 100.0 mg/kg/injection, schedule: Q01DX009 (ip), vehicle: Klucel (hydroxypropylcellulose) (HPC)) 132 % of control; (dose: 150.0 mg/kg/injection, schedule: Q04DX003 (ip), vehicle: saline with Tween-80) 126 % of control. The survivor count is reported as 6 of 6 (dose: 200.0 mg/kg/injection, schedule: Q01DX009 (ip), vehicle: saline); 5 of 6 (dose: 400.0 mg/kg/injection, schedule: Q01DX009 (ip), vehicle: Klucel (hydroxypropylcellulose) (HPC)); 6 of 6 (dose: 400.0 mg/kg/injection, schedule: Q01DX009 (ip), vehicle: saline).
For `CCOC(=O)c1cc2cc3c4c(c2oc1=O)CCCN4CCC3`, the survivor count by setting is: under setting [6], 0 of 6; under setting [4], 0 of 6.
For `O=C(NCCF)Oc1ccc([N+](=O)[O-])cc1`, the survivor count was 0 of 6 (dose: 37.5 mg/kg/injection, schedule: Q01DX005 (ip), vehicle: Klucel (hydroxypropylcellulose) (HPC)); 3 of 6 and 4 of 6 under setting [5]; 1 of 6 under setting [6]; 0 of 6 under setting [4].
